Assay results as given in PubChem BioAssay AID330 (DTP/NCI, 2004).
The list is a part of this screen's results and no random one: it gathers tests that were run many times, whatever their T/C, doses with no T/C, and many T/C values between a quarter and a half above the control. Other doses and runs of a compound stand elsewhere. T/C: endpoint of the treated group in % of that of the vehicle group. Some doses have a count of surviving animals in place of a T/C: the source files T/C as zero there, which appears to mark a toxic dose or a test without result, not a measured value. Some doses without a T/C left all or most animals alive at the check, yet need not have been tolerated: the source hardly ever lists a survival T/C far under the control, and the zero likely stands for such cases as well. Counts of survivors are from the toxicity check (mostly the fifth day) where no day follows; animals may have died later. Schedules are NCI's codes, read here as Q, the interval in days (D) or hours (H), X, the number of doses. Some molecules as drawn cover several salts, stereoisomers or complexes of the source; a dose is that of the sample tested. Some doses were run more than once; the values are given in rising order. For survival time, the PubChem record calls one and a half times the control and up active, and a quarter to a half above the control has no call in these data; cut-offs in other NCI protocols can differ. Some T/C values are followed by the survivors on the day toxicity was checked, most often the fifth; where none is given, no animal had died by that day.

Tested on: P388 leukemia ip, CD2F1 mice, survival T/C
Test: NCI In Vivo Anticancer Drug Screen. Data for tumor model P388 Leukemia (intraperitoneal) in CD2F1 (CDF1) mice
Details: T/C endpoint: median survival time, higher T/C = longer survival
[1] = dose: 50.0 mg/kg/injection, schedule: Q01DX009 (ip), vehicle: saline
[2] = dose: 100.0 mg/kg/injection, schedule: Q01DX009 (ip), vehicle: saline
[3] = dose: 200.0 mg/kg/injection, schedule: Q01DX009 (ip), vehicle: saline
[4] = dose: 240.0 mg/kg/injection, schedule: Q01DX005 (ip), vehicle: saline with Tween-80
[5] = dose: 200.0 mg/kg/injection, schedule: Q01DX005 (ip), vehicle: saline
[6] = dose: 120.0 mg/kg/injection, schedule: Q01DX005 (ip), vehicle: Klucel (hydroxypropylcellulose) (HPC)
[7] = dose: 240.0 mg/kg/injection, schedule: Q01DX005 (ip), vehicle: Klucel (hydroxypropylcellulose) (HPC)
[8] = dose: 400.0 mg/kg/injection, schedule: Q04DX002 (ip), vehicle: saline with Tween-80
[9] = dose: 100.0 mg/kg/injection, schedule: Q01DX005 (ip), vehicle: saline with Tween-80
[10] = dose: 200.0 mg/kg/injection, schedule: Q01DX005 (ip), vehicle: saline with Tween-80
[11] = dose: 240.0 mg/kg/injection, schedule: Q01DX005 (ip), vehicle: saline
[12] = dose: 400.0 mg/kg/injection, schedule: Q04DX003 (ip), vehicle: saline with Tween-80
[13] = dose: 400.0 mg/kg/injection, schedule: Q01DX001 (ip), vehicle: saline with Tween-80

For `C=C/[Se](=C(/C#N)C(=O)c1ccccc1)c1ccccc1` (configuration not stated), the survivor count [1] was 6 of 6, the survivor count [2] was 3 of 6 and the survivor count [3] was 1 of 6.
For `CC(C)NC(=O)OCCS(=O)c1c(Cl)c(Cl)nn1C` (configuration not stated), the survivor count [4] was 3 of 6.
With `CCN(CC)CCSCCCNc1cc(OC)cc2cccnc12` the survivor count (dose: 100.0 mg/kg/injection, schedule: Q01DX005 (ip), vehicle: saline) was 2 of 5 and the survivor count [5] was 0 of 5.
In the case of `Nc1[nH]c(=S)[nH]c(=O)c1NS(=O)(=O)c1ccc([N+](=O)[O-])cc1`, the T/C (dose: 60.0 mg/kg/injection, schedule: Q01DX005 (ip), vehicle: Klucel (hydroxypropylcellulose) (HPC)) is reported as 141 % of control, the T/C [6] is reported as 143 % of control and the T/C [7] is reported as 142 % of control. The survivor count [7] was 5 of 6.
`O=C1C=C(O)CC2(CCCCC2)C1` was tested, and the survivor count (dose: 50.0 mg/kg/injection, schedule: Q01DX005 (ip), vehicle: Klucel (hydroxypropylcellulose) (HPC)) was 5 of 5.
With `CCOC(=O)c1c[nH]n2ccnc12` the survivor count [8] was 0 of 6.
With `CSC(=S)N/N=C/c1ccc[nH]1` the survivor count [3] was 2 of 6.
With `Cc1cc(Nc2ccc3c(c2)OCO3)c2cc3c(cc2n1)OCO3` the T/C (dose: 100.0 mg/kg/injection, schedule: Q01DX005 (ip), vehicle: Klucel (hydroxypropylcellulose) (HPC)) was 126 % of control and the survivor count (dose: 400.0 mg/kg/injection, schedule: Q01DX005 (ip), vehicle: Klucel (hydroxypropylcellulose) (HPC)) was 0 of 6.
`CCCC=C=CCN(C)C` was tested, and the survivor count (dose: 100.0 mg/kg/injection, schedule: Q04DX002 (ip), vehicle: saline) was 1 of 6, the survivor count (dose: 200.0 mg/kg/injection, schedule: Q04DX002 (ip), vehicle: saline) was 0 of 6 and the survivor count (dose: 400.0 mg/kg/injection, schedule: Q04DX002 (ip), vehicle: saline) was 0 of 6.
`CCCCCCCCCC[N+]1(CC)CCCCCC1` was tested, and the survivor count (dose: 12.5 mg/kg/injection, schedule: Q01DX009 (ip), vehicle: saline) was 2 of 6, the survivor count [1] was 0 of 6 and the survivor count [2] was 0 of 6. For the same compound, the survivor count [3] was 0 of 6.
In the case of `C=C1Sc2ccccc2N1C`, the T/C (dose: 25.0 mg/kg/injection, schedule: Q01DX009 (ip), vehicle: Klucel (hydroxypropylcellulose) (HPC)) is reported as 125 % of control and the survivor count (dose: 50.0 mg/kg/injection, schedule: Q01DX009 (ip), vehicle: Klucel (hydroxypropylcellulose) (HPC)) is reported as 3 of 6.
For `Cc1ccc(N(CN2C(=O)CCC2=O)CS(=O)(=O)c2ccc(Cl)cc2)cc1`, the survivor count [6] was 5 of 6.
`CC(=O)/C(=C\c1ccc(/C=C(\C(C)=O)C(=O)CCN(C)C)cc1)C(=O)CCN(C)C` was tested, and the T/C [9] was 127 % of control and the T/C [10] was 135 % of control.
For `NC(N)=NS(=O)(=O)c1ccc(N=NC2C(=O)N(c3ccc(Cl)cc3)C(=S)N(c3ccc(Cl)cc3)C2=O)cc1`, the T/C [5] was 136 % of control [4 of 6 alive].
`Nc1cc2nnc(-c3ccccc3)c(-c3ccccc3)n2n1` was tested, and the survivor count (dose: 100.0 mg/kg/injection, schedule: Q04DX002 (ip), vehicle: saline with Tween-80) was 6 of 6.
`CC(NC(=O)C(Cc1ccccc1)NC(=O)c1ccc[n+](Cc2ccccc2)c1)C(N)=O` (configuration not stated) was tested, and the survivor count [11] was 0 of 6.
`CCN(CC)CCNc1cc2ccccc2c2sc3ccccc3c(=O)c12` was tested, and the survivor count (dose: 100.0 mg/kg/injection, schedule: Q01DX005 (ip), vehicle: distilled water + Tween-80) was 3 of 6 and the survivor count (dose: 200.0 mg/kg/injection, schedule: Q01DX005 (ip), vehicle: distilled water + Tween-80) was 0 of 6.
In the case of `COC1=C(OC)C(=O)C(CO)=CC1=O`, the survivor count (dose: 30.0 mg/kg/injection, schedule: Q01DX005 (ip), vehicle: saline) is reported as 0 of 6, the survivor count (dose: 60.0 mg/kg/injection, schedule: Q01DX005 (ip), vehicle: saline) is reported as 0 of 6 and the survivor count (dose: 120.0 mg/kg/injection, schedule: Q01DX005 (ip), vehicle: saline) is reported as 0 of 6. For the same compound, the survivor count [11] was 0 of 6.
For `CCC(Br)C(=O)SC(C)(C)C` (configuration not stated), the survivor count [12] was 1 of 6.
`Cc1ccccc1C[P+](c1ccccc1)(c1ccccc1)c1ccccc1` was tested, and the survivor count (dose: 20.0 mg/kg/injection, schedule: Q01DX009 (ip), vehicle: saline with Tween-80) was 6 of 6, the T/C (dose: 20.0 mg/kg/injection, schedule: Q04DX003 (ip), vehicle: saline with Tween-80) was 137 % of control and the survivor count (dose: 100.0 mg/kg/injection, schedule: Q04DX003 (ip), vehicle: saline with Tween-80) was 0 of 6. For the same compound, the survivor count (dose: 200.0 mg/kg/injection, schedule: Q04DX003 (ip), vehicle: saline with Tween-80) was 0 of 6 and the survivor count [12] was 0 of 6.
With `c1ccc2c3[n+](ccc2c1)CCC[n+]1ccc2ccccc2c1-3` the survivor count (dose: 12.5 mg/kg/injection, schedule: Q01DX001 (ip), vehicle: saline) was 1 of 6, the survivor count (dose: 25.0 mg/kg/injection, schedule: Q01DX001 (ip), vehicle: saline) was 0 of 6 and the survivor count (dose: 50.0 mg/kg/injection, schedule: Q01DX001 (ip), vehicle: saline) was 0 of 6.
With `O=[N+]([O-])c1cc([N+](=O)[O-])c2ccc(S(=O)(=O)O)cc2c1O` the survivor count (dose: 25.0 mg/kg/injection, schedule: Q04DX002 (ip), vehicle: saline) was 6 of 6, the survivor count (dose: 200.0 mg/kg/injection, schedule: Q04DX002 (ip), vehicle: saline with Tween-80) was 1 of 6 and the survivor count [13] was 3 of 6. For the same compound, the survivor count [8] was 2 of 6.
In the case of `Cc1ccc(S(=O)(=O)N(CCOc2c3occc3cc3ccc(=O)oc23)CCN(CCN(CCOc2c3occc3cc3ccc(=O)oc23)S(=O)(=O)c2ccc(C)cc2)S(=O)(=O)c2ccc(C)cc2)cc1`, the survivor count [13] is reported as 6 of 6.
In the case of `OC/C(Cl)=C(\Cl)CO`, the survivor count [1] is reported as 6 of 6, the survivor count [2] is reported as 2 of 6 and the survivor count [3] is reported as 0 of 6.
In the case of `O=CNC(Cc1ccccc1N(CCCl)CCCl)C(=O)O` (configuration not stated), the T/C (dose: 2.5 mg/kg/injection, schedule: Q04DX003 (ip), vehicle: water) is reported as 125 % of control and the survivor count (dose: 40.0 mg/kg/injection, schedule: Q04DX003 (ip), vehicle: other) is reported as 3 of 6.
For `Nc1nnc(Cc2ccccc2)n1N`, the survivor count [11] was 0 of 6.
In the case of `CCCCCCCC(=O)C1C(=O)OC(C)(C)OC1=O`, the survivor count [4] is reported as 0 of 6.
With `[NH-]C(CO)C(=O)O.[NH-]C(CO)C(=O)O.[Pd+2]` (configuration not stated) the T/C (dose: 100.0 mg/kg/injection, schedule: Q01DX009 (ip), vehicle: water) was 126 % of control [5 of 6 alive] and the survivor count (dose: 200.0 mg/kg/injection, schedule: Q04DX003 (ip), vehicle: water) was 1 of 6.
For `O=C(CCCc1ccc(N(CCCl)CCCl)cc1)OCCOc1ccccc1`, the survivor count (dose: 100.0 mg/kg/injection, schedule: Q01DX009 (ip), vehicle: saline with Tween-80) was 1 of 6 and 6 of 6 and the survivor count (dose: 200.0 mg/kg/injection, schedule: Q01DX009 (ip), vehicle: saline with Tween-80) was 2 of 6.
For `CC(C)c1cc(C(=O)[O-])c([O-])c(C(C)C)c1.[Cu+2].c1cnc2c(c1)ccc1cccnc12`, the survivor count (dose: 50.0 mg/kg/injection, schedule: Q01DX005 (ip), vehicle: saline with Tween-80) was 0 of 6, the survivor count [9] was 0 of 6 and the survivor count [10] was 0 of 6.
With `C[n+]1ccn(Cc2ccc([N+](=O)[O-])cc2)c1` the survivor count [3] was 6 of 6.
In the case of `COc1ccc2nc3ccccc3c(NCCNCCO)c2c1`, the T/C (dose: 5.0 mg/kg/injection, schedule: Q01DX009 (ip), vehicle: saline) is reported as 131 % of control, the survivor count (dose: 10.0 mg/kg/injection, schedule: Q01DX009 (ip), vehicle: saline) is reported as 4 of 6 and the survivor count (dose: 20.0 mg/kg/injection, schedule: Q01DX009 (ip), vehicle: saline) is reported as 5 of 6.
With `COc1cc(-c2cc(O)c(-c3ccc4ccccc4n3)c(=O)[nH]2)cc(OC)c1OC` the survivor count (dose: 15.0 mg/kg/injection, schedule: Q01DX005 (ip), vehicle: saline with Tween-80) was 6 of 6, the survivor count (dose: 30.0 mg/kg/injection, schedule: Q01DX005 (ip), vehicle: saline with Tween-80) was 6 of 6 and the survivor count (dose: 60.0 mg/kg/injection, schedule: Q01DX005 (ip), vehicle: saline with Tween-80) was 6 of 6.
For `O=C(NN(C(=O)c1ccccc1)c1ccccc1)c1ccccc1`, the survivor count [10] was 5 of 5.
